No constants are given. Whether binding was seen depends on the method and setting. For some assays here: Binding seen in cells or lysates may run through a third protein. Some binding calls cover weakened binding; strength is not graded here. Where a sequence is shown, tags or fusion partners need not be part of it.
B1: TMX5/TXNDC15, V5-tagged (TMX5-V5 WT) (protein, UniProt Q96J42 33-360)
chain: VEVAEESGRLWSEEQPAHPLQVGAVYLGEEELLHDPMGQDRAAEEANAVLGLDTQGDHMVMLSVIPGEAEDKVSSEPSGVTCGAGGAEDSRCNVRESLFSLDGAGAHFPDREEEYYTEPEVAESDAAPTEDSNNTESLKSPKVNCEERNITGLENFTLKILNMSQDLMDFLNPNGSDCTLVLFYTPWCRFSASLAPHFNSLPRAFPALHFLALDASQHSSLSTRFGTVAVPNILLFQGAKPMARFNHTDRTLETLKIFIFNQTGIEAKKNVVVTQADQIGPLPSTLIKSVDWLLVFSLFFLISFIMYATIRTESIRWLIPGQEQEHVE
B2: TMX5_(C220A), V5-tagged (protein, UniProt Q96J42 33-360)
chain: VEVAEESGRLWSEEQPAHPLQVGAVYLGEEELLHDPMGQDRAAEEANAVLGLDTQGDHMVMLSVIPGEAEDKVSSEPSGVTCGAGGAEDSRCNVRESLFSLDGAGAHFPDREEEYYTEPEVAESDAAPTEDSNNTESLKSPKVNCEERNITGLENFTLKILNMSQDLMDFLNPNGSDCTLVLFYTPWARFSASLAPHFNSLPRAFPALHFLALDASQHSSLSTRFGTVAVPNILLFQGAKPMARFNHTDRTLETLKIFIFNQTGIEAKKNVVVTQADQIGPLPSTLIKSVDWLLVFSLFFLISFIMYATIRTESIRWLIPGQEQEHVE
B3: TMX5_(C114A), V5-tagged (protein, UniProt Q96J42 33-360)
chain: VEVAEESGRLWSEEQPAHPLQVGAVYLGEEELLHDPMGQDRAAEEANAVLGLDTQGDHMVMLSVIPGEAEDKVSSEPSGVTAGAGGAEDSRCNVRESLFSLDGAGAHFPDREEEYYTEPEVAESDAAPTEDSNNTESLKSPKVNCEERNITGLENFTLKILNMSQDLMDFLNPNGSDCTLVLFYTPWCRFSASLAPHFNSLPRAFPALHFLALDASQHSSLSTRFGTVAVPNILLFQGAKPMARFNHTDRTLETLKIFIFNQTGIEAKKNVVVTQADQIGPLPSTLIKSVDWLLVFSLFFLISFIMYATIRTESIRWLIPGQEQEHVE
B4: TMX5_(C124A), V5-tagged (protein, UniProt Q96J42 33-360)
chain: VEVAEESGRLWSEEQPAHPLQVGAVYLGEEELLHDPMGQDRAAEEANAVLGLDTQGDHMVMLSVIPGEAEDKVSSEPSGVTCGAGGAEDSRANVRESLFSLDGAGAHFPDREEEYYTEPEVAESDAAPTEDSNNTESLKSPKVNCEERNITGLENFTLKILNMSQDLMDFLNPNGSDCTLVLFYTPWCRFSASLAPHFNSLPRAFPALHFLALDASQHSSLSTRFGTVAVPNILLFQGAKPMARFNHTDRTLETLKIFIFNQTGIEAKKNVVVTQADQIGPLPSTLIKSVDWLLVFSLFFLISFIMYATIRTESIRWLIPGQEQEHVE
B5: TMX5_(C177A), V5-tagged (protein, UniProt Q96J42 33-360)
chain: VEVAEESGRLWSEEQPAHPLQVGAVYLGEEELLHDPMGQDRAAEEANAVLGLDTQGDHMVMLSVIPGEAEDKVSSEPSGVTCGAGGAEDSRCNVRESLFSLDGAGAHFPDREEEYYTEPEVAESDAAPTEDSNNTESLKSPKVNAEERNITGLENFTLKILNMSQDLMDFLNPNGSDCTLVLFYTPWCRFSASLAPHFNSLPRAFPALHFLALDASQHSSLSTRFGTVAVPNILLFQGAKPMARFNHTDRTLETLKIFIFNQTGIEAKKNVVVTQADQIGPLPSTLIKSVDWLLVFSLFFLISFIMYATIRTESIRWLIPGQEQEHVE
B6: TMX5_(C210A), V5-tagged (protein, UniProt Q96J42 33-360)
chain: VEVAEESGRLWSEEQPAHPLQVGAVYLGEEELLHDPMGQDRAAEEANAVLGLDTQGDHMVMLSVIPGEAEDKVSSEPSGVTCGAGGAEDSRCNVRESLFSLDGAGAHFPDREEEYYTEPEVAESDAAPTEDSNNTESLKSPKVNCEERNITGLENFTLKILNMSQDLMDFLNPNGSDATLVLFYTPWCRFSASLAPHFNSLPRAFPALHFLALDASQHSSLSTRFGTVAVPNILLFQGAKPMARFNHTDRTLETLKIFIFNQTGIEAKKNVVVTQADQIGPLPSTLIKSVDWLLVFSLFFLISFIMYATIRTESIRWLIPGQEQEHVE
B7: HA-tagged ERp44_(C29S) (protein, UniProt Q9BS26 30-406)
chain: EITSLDTENIDEILNNADVALVNFYADWSRFSQMLHPIFEEASDVIKEEFPNENQVVFARVDCDQHSDIAQRYRISKYPTLKLFRNGMMMKREYRGQRSVKALADYIRQQKSDPIQEIRDLAEITTLDRSKRNIIGYFEQKDSDNYRVFERVANILHDDCAFLSAFGDVSKPERYSGDNIIYKPPGHSAPDMVYLGAMTNFDVTYNWIQDKCVPLVREITFENGEELTEEGLPFLILFHMKEDTESLEIFQNEVARQLISEKGTINFLHADCDKFRHPLLHIQKTPADCPVIAIDSFRHMYVFGDFKDVLIPGKLKQFVFDLHSGKLHREFHHGPDPTDTAPGEQAQDVASSPPESSFQKLAPSEYRYTLLRDRDEL

Amino acid sequences for entries named in this document (tags omitted). Residues count along the entry.
UniProt P30101, residues 25-505: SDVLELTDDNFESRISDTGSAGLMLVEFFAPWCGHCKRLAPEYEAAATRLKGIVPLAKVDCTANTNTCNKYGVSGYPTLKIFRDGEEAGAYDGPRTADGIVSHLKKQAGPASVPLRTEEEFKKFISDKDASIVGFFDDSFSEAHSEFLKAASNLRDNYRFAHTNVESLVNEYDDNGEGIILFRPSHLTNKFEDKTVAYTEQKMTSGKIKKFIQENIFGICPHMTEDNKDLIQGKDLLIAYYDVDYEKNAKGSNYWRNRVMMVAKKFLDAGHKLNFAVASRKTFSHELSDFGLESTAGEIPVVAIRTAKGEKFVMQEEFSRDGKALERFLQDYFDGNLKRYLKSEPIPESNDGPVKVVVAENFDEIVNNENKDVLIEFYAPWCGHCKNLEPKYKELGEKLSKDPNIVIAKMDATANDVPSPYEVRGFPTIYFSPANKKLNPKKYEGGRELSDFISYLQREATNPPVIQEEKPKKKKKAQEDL
UniProt P07237, residues 18-508: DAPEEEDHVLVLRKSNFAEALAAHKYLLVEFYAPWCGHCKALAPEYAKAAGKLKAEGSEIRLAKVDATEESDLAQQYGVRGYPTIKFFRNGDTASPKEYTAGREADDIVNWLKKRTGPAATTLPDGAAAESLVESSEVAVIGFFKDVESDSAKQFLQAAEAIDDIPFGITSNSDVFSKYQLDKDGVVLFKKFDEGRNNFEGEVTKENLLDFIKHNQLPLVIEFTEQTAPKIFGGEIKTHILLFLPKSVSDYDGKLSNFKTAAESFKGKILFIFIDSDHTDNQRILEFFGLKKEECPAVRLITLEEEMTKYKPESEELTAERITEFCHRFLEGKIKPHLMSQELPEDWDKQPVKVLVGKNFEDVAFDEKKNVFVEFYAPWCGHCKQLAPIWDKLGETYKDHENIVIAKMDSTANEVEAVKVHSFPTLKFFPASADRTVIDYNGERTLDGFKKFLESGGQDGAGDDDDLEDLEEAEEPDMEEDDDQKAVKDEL

Legend:
TMX5_(C220A), V5-tagged [1] = molecular target: T1, TMX5_(C220A), V5-tagged (UniProt Q96J42); test: co-IP; V5-TMX5 or V5-TMX5 C220A immunoisolated with anti-V5 beads from HEK293 lysates (RIPA, 20 mM NEM); non-reducing and reducing SDS-PAGE; Western blot for endogenous PDI, ERp57, ERp44
T1 sequence: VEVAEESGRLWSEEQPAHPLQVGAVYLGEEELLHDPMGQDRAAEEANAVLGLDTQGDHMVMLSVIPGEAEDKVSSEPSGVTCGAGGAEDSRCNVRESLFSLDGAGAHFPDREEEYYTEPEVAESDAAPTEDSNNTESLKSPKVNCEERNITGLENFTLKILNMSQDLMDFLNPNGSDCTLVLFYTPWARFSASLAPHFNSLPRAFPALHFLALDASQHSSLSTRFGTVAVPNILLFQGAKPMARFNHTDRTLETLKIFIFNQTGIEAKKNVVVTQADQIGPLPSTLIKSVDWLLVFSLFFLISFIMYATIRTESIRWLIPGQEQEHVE

[2] = molecular target: T2, TMX5/TXNDC15, V5-tagged (TMX5-V5 WT) (UniProt Q96J42); test: as above
T2 sequence: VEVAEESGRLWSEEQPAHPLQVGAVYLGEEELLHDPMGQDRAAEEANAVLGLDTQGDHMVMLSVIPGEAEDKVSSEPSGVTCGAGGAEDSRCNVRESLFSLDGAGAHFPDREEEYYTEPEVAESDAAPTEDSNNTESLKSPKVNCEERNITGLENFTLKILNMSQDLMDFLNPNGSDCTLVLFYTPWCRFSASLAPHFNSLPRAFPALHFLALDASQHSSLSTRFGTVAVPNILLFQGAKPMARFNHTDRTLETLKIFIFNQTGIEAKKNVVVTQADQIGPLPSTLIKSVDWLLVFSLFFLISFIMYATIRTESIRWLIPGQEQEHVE

[3] = molecular target: T3, HA-tagged ERp44 (ERp44wt) (UniProt Q9BS26); test: co-IP; HEK293 cells co-expressing V5-tagged TMX5 (or cysteine mutants) and HA-tagged ERp44; immunoisolation with anti-HA antibody (ERp44 as bait), non-reducing/reducing SDS-PAGE, Western blot with anti-V5
T3 sequence: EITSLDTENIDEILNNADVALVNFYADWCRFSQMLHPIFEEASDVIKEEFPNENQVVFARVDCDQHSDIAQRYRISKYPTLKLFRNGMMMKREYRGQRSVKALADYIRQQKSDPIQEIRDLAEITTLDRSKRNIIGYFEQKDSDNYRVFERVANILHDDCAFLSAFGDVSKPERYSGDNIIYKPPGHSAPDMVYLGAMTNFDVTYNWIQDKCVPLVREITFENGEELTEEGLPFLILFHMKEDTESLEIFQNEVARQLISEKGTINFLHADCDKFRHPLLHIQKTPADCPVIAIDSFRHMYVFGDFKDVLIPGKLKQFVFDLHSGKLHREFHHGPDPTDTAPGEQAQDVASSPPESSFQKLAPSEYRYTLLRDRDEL

TMX5_(C220A), V5-tagged [4] = molecular target: T1, TMX5_(C220A), V5-tagged; test: non-reducing SDS-PAGE and Western blot of mixed disulfides; post-nuclear fractions of HEK293 cells co-transfected with V5-tagged TMX5 or TMX5 C220A and HA-tagged ERp44 or ERp44 C29S; no immunoprecipitation; anti-V5 blot in non-reducing and reducing conditions; TMX5-ss-ERp44 band

Molecule | binding [3] | further results
endogenous ERp57 (PDIA3) (from UniProt P30101 25-505) | – | binding (TMX5_(C220A), V5-tagged [1]): binds; binding [2]: binds
endogenous PDI (PDIA1) (from UniProt P07237 18-508) | – | binding (TMX5_(C220A), V5-tagged [1]): binds; binding [2]: binds
B1 | binds | –
B2 | binds | –
B3 | binds | –
B4 | binds | –
B5 | binds | –
B6 | binds | –
B7 | – | binding (TMX5_(C220A), V5-tagged [4]): no binding

Reference: article PMC11443168
